Experimental data from paper PMC12212275.
No constants are given. Whether binding was seen depends on the method and setting. Binding seen in cells or lysates may run through a third protein. Here binding means that the protein was enriched with, or labelled near, the bait; the list need not be complete.

The chains behind the UniProt entries cited, without tags or fusion partners.
UniProt O00560: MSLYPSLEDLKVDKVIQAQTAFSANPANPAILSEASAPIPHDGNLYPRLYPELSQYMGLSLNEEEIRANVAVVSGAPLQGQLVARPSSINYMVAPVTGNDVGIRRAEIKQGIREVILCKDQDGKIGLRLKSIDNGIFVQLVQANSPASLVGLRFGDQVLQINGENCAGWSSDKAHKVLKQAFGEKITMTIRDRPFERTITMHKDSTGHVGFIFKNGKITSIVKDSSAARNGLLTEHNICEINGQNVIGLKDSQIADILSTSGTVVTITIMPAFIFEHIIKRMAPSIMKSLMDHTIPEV
UniProt Q9UHD2: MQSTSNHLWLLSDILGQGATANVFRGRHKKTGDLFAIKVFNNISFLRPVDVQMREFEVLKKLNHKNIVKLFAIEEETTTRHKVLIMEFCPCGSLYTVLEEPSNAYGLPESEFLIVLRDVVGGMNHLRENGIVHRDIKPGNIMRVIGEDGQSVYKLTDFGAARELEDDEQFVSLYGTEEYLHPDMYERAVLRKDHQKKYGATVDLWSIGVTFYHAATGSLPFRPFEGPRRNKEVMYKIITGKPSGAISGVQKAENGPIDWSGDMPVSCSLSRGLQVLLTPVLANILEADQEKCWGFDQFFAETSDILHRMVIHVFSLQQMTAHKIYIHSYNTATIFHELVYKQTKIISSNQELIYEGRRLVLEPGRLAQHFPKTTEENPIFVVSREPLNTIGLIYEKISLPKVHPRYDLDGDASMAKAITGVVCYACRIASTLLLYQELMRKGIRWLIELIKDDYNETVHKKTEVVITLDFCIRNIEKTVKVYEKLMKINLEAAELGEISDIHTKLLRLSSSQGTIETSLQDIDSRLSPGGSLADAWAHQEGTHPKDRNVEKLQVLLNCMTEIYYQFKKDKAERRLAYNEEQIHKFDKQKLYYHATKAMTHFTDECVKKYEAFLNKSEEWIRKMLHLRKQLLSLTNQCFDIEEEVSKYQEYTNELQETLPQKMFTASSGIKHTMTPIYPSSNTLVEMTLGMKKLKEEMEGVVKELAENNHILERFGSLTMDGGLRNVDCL

Target: Flag-tagged syntenin-1 (human) (UniProt O00560)
Experiment: affinity purification with mass spectrometry; Flag-syntenin-1 expressed in HEK293T; lysate with Flag magnetic beads overnight at 4 °C; washed with 1% Triton X-100 in PBS; control: cells with empty pcDNA3.4 plasmid

TBK1 (endogenous, HEK293T) (from UniProt Q9UHD2 1-729) (enzyme)
binding: binds
